Measured values taken from BindingDB's records for doi:10.1016/0893-133X(94)00129-N (Eli Lilly, 1996).

Amino acid sequences for entries named in this document (tags omitted).
UniProt Q8MI13, whole entry: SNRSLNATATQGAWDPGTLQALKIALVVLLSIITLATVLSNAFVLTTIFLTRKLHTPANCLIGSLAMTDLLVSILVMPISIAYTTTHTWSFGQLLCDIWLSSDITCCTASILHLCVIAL
UniProt P28564, whole entry: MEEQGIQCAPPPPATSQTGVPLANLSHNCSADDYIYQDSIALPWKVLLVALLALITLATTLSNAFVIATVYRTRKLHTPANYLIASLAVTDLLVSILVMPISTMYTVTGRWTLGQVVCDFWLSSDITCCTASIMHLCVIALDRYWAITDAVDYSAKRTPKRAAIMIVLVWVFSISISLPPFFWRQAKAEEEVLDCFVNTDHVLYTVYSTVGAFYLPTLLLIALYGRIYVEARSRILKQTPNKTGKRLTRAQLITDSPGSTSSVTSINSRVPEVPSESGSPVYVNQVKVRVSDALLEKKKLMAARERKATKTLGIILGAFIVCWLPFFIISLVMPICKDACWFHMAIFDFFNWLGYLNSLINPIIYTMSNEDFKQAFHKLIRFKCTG

How the values were obtained:
[1] = target: 5-hydroxytryptamine 1D receptor (Bos taurus, UniProt Q8MI13)
[2] = target: 5-hydroxytryptamine receptor 1B (Rattus norvegicus, UniProt P28564)
[3] = target: T1, 5-hydroxytryptamine receptor 3A (Rattus norvegicus, UniProt P35563)
T1 sequence (P35563 whole entry): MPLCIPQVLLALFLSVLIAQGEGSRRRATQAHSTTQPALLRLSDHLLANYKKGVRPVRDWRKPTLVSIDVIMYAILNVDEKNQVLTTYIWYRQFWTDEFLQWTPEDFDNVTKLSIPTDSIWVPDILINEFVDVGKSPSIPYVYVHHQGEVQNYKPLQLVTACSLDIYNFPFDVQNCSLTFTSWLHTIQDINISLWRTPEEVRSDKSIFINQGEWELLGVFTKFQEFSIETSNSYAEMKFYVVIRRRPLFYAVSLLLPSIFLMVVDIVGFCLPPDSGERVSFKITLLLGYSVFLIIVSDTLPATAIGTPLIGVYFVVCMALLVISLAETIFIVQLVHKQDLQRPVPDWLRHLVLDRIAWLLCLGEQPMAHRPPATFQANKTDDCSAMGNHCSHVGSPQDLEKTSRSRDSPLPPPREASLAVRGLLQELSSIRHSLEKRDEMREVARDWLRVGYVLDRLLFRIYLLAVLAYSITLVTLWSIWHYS

Ki [1]: 6.22 µM | Ki [2]: 5.4 µM | Ki [3]: 0.17 µM
Compound: OCCOCCN1CCN(C2=Nc3ccccc3Sc3ccccc32)CC1 [2-[2-(4-dibenzo[b,f][1,4]thiazepin-11-ylpiperazin-1-yl)ethoxy]ethanol]
